# Measured values published in PMC5458512.
# These are yes or no findings as the source states them, for the method shown. In cells and extracts the contact can be indirect. Some binding calls cover weakened binding; strength is not graded here. Where a sequence is shown, tags or fusion partners need not be part of it.
# T1: Argonaute (Ago1), endogenous 3xFLAG-tagged (S. pombe) (UniProt O74957)
# T1 sequence: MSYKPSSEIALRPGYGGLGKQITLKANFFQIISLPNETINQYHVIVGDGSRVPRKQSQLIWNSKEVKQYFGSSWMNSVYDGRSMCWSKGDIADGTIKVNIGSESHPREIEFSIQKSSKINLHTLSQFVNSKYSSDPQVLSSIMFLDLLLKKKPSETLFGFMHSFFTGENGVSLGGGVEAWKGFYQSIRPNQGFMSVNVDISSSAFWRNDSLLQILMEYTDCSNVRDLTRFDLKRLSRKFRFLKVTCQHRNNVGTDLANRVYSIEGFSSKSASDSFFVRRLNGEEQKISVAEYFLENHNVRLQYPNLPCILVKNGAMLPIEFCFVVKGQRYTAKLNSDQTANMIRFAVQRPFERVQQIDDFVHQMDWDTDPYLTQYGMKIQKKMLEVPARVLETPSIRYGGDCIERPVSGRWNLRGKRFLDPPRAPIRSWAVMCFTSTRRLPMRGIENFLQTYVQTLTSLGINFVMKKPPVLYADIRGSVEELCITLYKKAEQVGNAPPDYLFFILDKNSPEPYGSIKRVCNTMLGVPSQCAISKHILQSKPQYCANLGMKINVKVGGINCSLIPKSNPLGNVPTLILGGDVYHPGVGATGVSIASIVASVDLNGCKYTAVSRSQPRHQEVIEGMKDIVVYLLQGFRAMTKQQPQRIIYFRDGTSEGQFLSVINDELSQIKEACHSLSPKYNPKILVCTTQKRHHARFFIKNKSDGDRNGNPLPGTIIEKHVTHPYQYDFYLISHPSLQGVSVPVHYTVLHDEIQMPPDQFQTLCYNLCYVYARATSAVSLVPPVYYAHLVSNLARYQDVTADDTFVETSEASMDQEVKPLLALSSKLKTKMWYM
# B1: Cid14, endogenously C-terminally 3xHA-tagged (enzyme, UniProt Q9UTN3 1-684)
# chain: MGKKSVSFNRNNYKKRKNERTEPLPRRIFKNDKPSKFKSKRKEKDKNSDAYDEMLLNNNFTLLDQEEPMVEIGSKKSRNDNDSEGIRDKGGVEISNKNDPYIQFGKADPLEPLEKPDLPEEAIKRGEPTILLGIPKREGRKTNPVHDKAVENNSDFIKFDWNSDEDEDSVSNDKSKNNESLKKSSKNEIPGFMRQRGRFFHEANEKSDSNRKRKRQAYELDSQSCPWHRQYKVEREVSRIFHQDILHFIDYITPTPEEHAVRKTLVSRINQAVLQKWPDVSLYVFGSFETKLYLPTSDLDLVIISPEHHYRGTKKDMFVLAHHLKKLKLASEVQVITTANVPIIKFVDPLTKVHVDISFNQPGGLKTCLVVNGFMKKYPALRPLVIIIKHFLNMRALNEVFLGGLSSYAIVCLVVSFLQLHPRLSTGSMREEDNFGVLLLEFLELYGKQFYYDAVGIAVHNGGFYFSKKKMGWLKPNQPYLLSIQDPVDFQNDVSKSSRGLLRVKATFANGFDLLTSKLYALASRIEREGVNRVKDFPSILSTILSVDEGVRQHREHMLKCYKNNPVPLEPLVEVDALASIDVDKLPLQDVGLQYVEDESDSDETDAAKDDLFKVNESIETNGHENFQKQALTSTGEQSSSNSRANPSKLFNISSDDSEDEVPIIEDTTASDEESRAKKIRKRF
# Target: T1, Argonaute (Ago1), endogenous 3xFLAG-tagged (S. pombe)
# Experiment: co-IP; Flag immunoprecipitation (Flag-M2 affinity gel) of Ago1 from S. pombe lysate in low salt (50 mM HEPES pH 7.5, 100 mM NaOAc, 5 mM MgCl2, 2 mM EDTA, 2 mM EGTA, 0.1% Nonidet P-40, 20% glycerol), 4 °C; immunoblot with anti-HA and anti-FLAG
binder,measurement,value
B1,binding,binds
